From PubChem BioAssay AID493014 (National Center for Advancing Translational Sciences (NCATS), 2011)
This is one part of the list. These are further read-outs of the screen, such as a control signal, another cell line or another target. No call is given for them. Compounds called inactive in the main read-out are mostly missing here. The note in brackets gives the kind of curve behind each potency; many fits are weak.

Assay: qHTS Assay to Find Inhibitors of Chronic Active B-Cell Receptor Signaling
Conditions: ABC-DLBCL IkBa-CBG/CBR reporter, luminescence ratio (green luciferase fused to IkBa over red control in TMD8 lymphoma cells), 4 h
Summary of the method: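 TMD8 ABC-DLBCL cells carrying doxycycline-inducible green luciferase fused to IkappaBalpha plus unfused red luciferase were exposed to compounds (up to 46 uM) for 4 hrs at 37C. Activity came from the overlap-corrected green/red luminescence ratio.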

[1] = measured here: CBR red luminescence, cell number
[2] = measured here: IkBa-CBG green luminescence

SMILES	AC50 [1]	AC50 [2]
Cc1nc2c(c3c1[nH]c1ccccc13)C(=O)CC(C)(C)C2	14.1 µM [falling, single point]	3.55 µM [rising, full curve, poor fit]
COc1ccc([C@H]2CC(=O)C=C(c3cccc(C#N)c3)C2)cc1	1.46 µM [rising, full curve, poor fit]	
OC(COc1ccc(F)cc1)CN1CCN(CC(O)COc2ccc(F)cc2)CC1 (centres undefined)	14.1 µM [rising, single point]	
C=C(C)Cn1c(CCCNC(=O)CC)nc2ccccc21	13 µM [rising, partial curve]	
CC(=O)N(c1c(C)n(C)n(-c2ccccc2)c1=O)C1(C(=O)NC2CCCCC2)CCCCC1	2.59 µM [falling, single point]	
Cc1ccc(N2C(=O)N(CC(=O)Nc3cccc([N+](=O)[O-])c3C)C(=O)C2C)cc1 (centres undefined)	3.26 µM [rising, full curve, poor fit]	
O=C(Nc1nnc(C2CCCO2)s1)c1ccc(Br)cc1 (centres undefined)	2.06 µM [falling, full curve]	
Cc1cc(NC(=O)CCC(=O)N(Cc2ccco2)C(C(=O)NC2CCCC2)c2ccccc2C)no1 (centres undefined)	25.9 µM [falling, single point]	
O=C(CSCc1ccc(Cl)cc1)Nc1cccc(C(=O)O)c1	11.2 µM [falling, partial curve]	
O=C(CNC1CCCCC1)Nc1ccc([N+](=O)[O-])cc1C(=O)Nc1ccccc1F	22.4 µM [falling, single point]	
CCOC(=O)C1=C(C)OC(N)=C(C#N)C1c1cc(F)ccc1F (centres undefined)	20.6 µM [falling, single point]	
CCOC(=O)CNC(=O)CCNS(=O)(=O)c1ccc2c(c1)c(=O)n(C)c(=O)n2C	20.6 µM [falling, single point]	
Cc1ccc(NC(=O)c2cccc(OCc3c(C)noc3C)c2)cc1	2.59 µM [falling, full curve]	
O=c1c2ccccc2sc2ccc(Cl)cc12	2.06 µM [rising, full curve]	
Cc1ccc(NC(=O)CN2CCCCCC2)c(Br)c1	11.2 µM [falling, partial curve]	
Cc1cc2c(cc(C(=O)OC(C(=O)NCC3CCCO3)C(C)C)n2C)o1 (centres undefined)	4.47 µM [rising, single point]	
COC(=O)NC1(C(F)(F)F)C(=O)NC(C)=C1C(=O)OC (centres undefined)	6.51 µM [rising, single point]	3.66 µM [falling, partial curve, poor fit]
COc1ccc(Oc2nc3ccccc3n(C)c2=O)cc1	0.058 µM [rising, full curve, poor fit]	
O=C(O)CN1C(=O)C(=O)N(Cc2ccc(Cl)cc2Cl)C1=O	35.5 µM [rising, single point]	
Cc1ccc2c(c1)C(=O)N1[C@H]3c4ccccc4OC[C@@H]3[C@H](c3ccccc3)[C@]1(C)C(=O)N2	29.1 µM [falling, single point]	2.31 µM [rising, full curve, poor fit]
O=C(Nc1cccc(Br)c1)c1ccn[nH]1	10 µM [falling, partial curve]	

SMILES	AC50 [1]	AC50 [2]
O=[N+]([O-])c1ccc(O)c(/C=N/Nc2ccccn2)c1	29.1 µM [falling, single point]	
O=C(CSc1nc(=O)n2cc(Cl)ccc2n1)Nc1cccc2ccccc12	8.2 µM [falling, partial curve]	
NC(=O)[C@@H]1CCCN1C(=O)c1ccc2nc(Cc3ccccc3F)oc2c1	35.5 µM [falling, partial curve, poor fit]	
CCCCC(CC)C(=O)NCc1ccc(F)cc1 (centres undefined)	0.731 µM [rising, full curve, poor fit]	
C=CCOc1ccccc1CN(C(=O)CCl)c1ccc2c(c1)OCO2	14.1 µM [falling, partial curve]	
CCN1CCN(Cc2ccc(NC(=O)c3cc(NC(=O)c4cc(C)on4)cc(OC)c3)cc2C(F)(F)F)CC1	11.2 µM [falling, partial curve]	
COc1ccc(N(CC(=O)Nc2ccc(F)c(Cl)c2)S(=O)(=O)c2c(C)noc2C)cc1	32.6 µM [falling, single point]	
Cc1[nH]c2ccc(F)cc2c1CCN(Cc1ccncc1)C(=S)Nc1ccccc1	35.5 µM [falling, single point]	
O=C(Oc1ccc(Cl)cc1)c1ccc(COC(=O)c2cnccn2)cc1	29.1 µM [rising, single point]	
CC1(C)CC(=O)C(C=NCC2CCCO2)=C(O)C1 (centres undefined)	35.5 µM [rising, single point]	
CCCNC(=O)N1CCC(Cc2ccccc2)CC1	11.2 µM [rising, partial curve, poor fit]	
COc1cccc(C(=O)Cn2c(=N)n(C)c3ccccc32)c1	10 µM [falling, single point]	
COc1ccccc1C(CNC(=O)c1ccc(C)c(S(=O)(=O)N2CCCCC2)c1)N(C)C (centres undefined)	0.651 µM [falling, full curve, poor fit]	
CC(C)(C)OC(=O)COc1cc(OCC(=O)OC(C)(C)C)c2c(=O)cc(-c3ccccc3)oc2c1	20 µM [falling, single point]	12.6 µM [rising, partial curve, poor fit]
Cc1c(Cc2ccccc2)sc(NC(=O)c2ccco2)c1C(N)=O	6.51 µM [falling, partial curve, poor fit]	0.58 µM [rising, full curve]
COc1ccccc1C(=O)NCC(=O)NNC(=O)c1cccs1	0.731 µM [falling, single point]	
COc1ccc(C(=O)NN(C)c2nc(-c3ccccc3)nnc2C(F)(F)F)cc1	11.2 µM [rising, single point]	
Nc1nonc1C(=O)N/N=C\c1cc2c(cc1Cl)OCO2	31.6 µM [rising, single point]	35.5 µM [falling, single point]
COc1cc2[nH]c(=S)nc(NCCc3ccc(S(N)(=O)=O)cc3)c2cc1OC	8.91 µM [rising, partial curve, poor fit]	
Cc1cc(Nc2ccc(N3CCC(C)CC3)cc2)n2ncnc2n1	16.4 µM [falling, partial curve, poor fit]	
CC(=O)c1c(C)nc(Nc2nc(C)c3cc(C)ccc3n2)nc1C	8.91 µM [rising, partial curve, poor fit]	

In the list so far, three contain bromine.
SMILES	AC50 [1]	AC50 [2]
O=C(Nc1nnc(C2CCCO2)s1)c1ccc(Br)cc1 (centres undefined)	2.06 µM [falling, full curve]	
Cc1ccc(NC(=O)CN2CCCCCC2)c(Br)c1	11.2 µM [falling, partial curve]	
O=C(Nc1cccc(Br)c1)c1ccn[nH]1	10 µM [falling, partial curve]	

Carrying on.

SMILES	AC50 [1]	AC50 [2]
COc1ccc(/C=C/C(=O)Nc2ccccc2C(=O)NCC(c2ccc(OC)cc2)N(C)C)cc1 (centres undefined)	15.8 µM [falling, single point]	
CC[C@]12c3[nH]c4ccc(Cl)cc4c3CCN1C(=O)[C@@H](CC(=O)NC/C=C(\C)CCC=C(C)C)C[C@@H]2C(=O)N1CCN(C(=O)C2CC2)CC1	20.6 µM [falling, single point]	32.6 µM [rising, partial curve, poor fit]
O=C(NC1CC1)C1=C[C@H](c2c[nH]c3ccccc23)C[C@H](OCc2ccc(CO)cc2)O1	3.55 µM [rising, full curve]	
O=C(Nc1nc(=O)c2ccccc2s1)c1ccccc1	2.59 µM [falling, full curve, poor fit]	
COc1ccc(CCNCc2c(-c3ccccc3)n(C)c3ccccc23)cc1	15.8 µM [falling, single point]	
CNc1snc(C)c1C(=O)OC(C)C(=O)Nc1ccccc1 (centres undefined)	29.1 µM [rising, single point]	
O=C(CSC1=NCCS1)N1CCc2ccccc21	0.731 µM [rising, partial curve, poor fit]	
CC(C)c1ccccc1OCCNS(C)(=O)=O	7.94 µM [rising, partial curve, poor fit]	
Cc1cc(C)c(OCCN(C)Cc2ccccc2)c(Br)c1	15.8 µM [rising, single point]	
Cc1ccc(COc2ccsc2C(=O)NNC(N)=S)cc1	22.4 µM [falling, single point]	
Oc1c(C(c2ccccn2)N2CCCCC2)cc(Cl)c2cccnc12 (centres undefined)	15.8 µM [falling, partial curve, poor fit]	
Cc1cc(NCCCN2CCOCC2)n2c(nc3ccccc32)c1C#N	35.5 µM [falling, single point]	
N#Cc1cccc(NC(=O)CNc2cccc(S(=O)(=O)N3CCCC3)c2)c1	18.4 µM [falling, single point]	
O=C(CNC(=O)c1ccccc1F)NCCc1ccccc1F	3.26 µM [rising, single point]	
COc1ccc(C(=O)Nc2nc3ccccc3c(=O)[nH]2)cc1	0.184 µM [falling, full curve]	
Cn1cnnc1SCC(=O)Nc1ncc([N+](=O)[O-])s1	14.6 µM [falling, partial curve, poor fit]	
OCCNCc1ccc(-c2ccccc2)cc1	0.731 µM [falling, full curve, poor fit]	
CC(=O)NCCc1csc(-c2ccccc2)n1	29.1 µM [rising, single point]	
C/C=C(\C)C(=O)Nc1cccc(C2=NOC3(C2)C[C@@H](C(N)=O)N(C(=O)c2cc([N+](=O)[O-])cc([N+](=O)[O-])c2C)C3)c1 (some centres undefined)	0.447 µM [rising, full curve, poor fit]	
O=C(O)C(Oc1ccc2c(c1)oc(=O)c1ccccc12)c1ccccc1 (centres undefined)	11.2 µM [rising, partial curve, poor fit]	
